Results from PubChem BioAssay AID504834 (National Center for Advancing Translational Sciences (NCATS), 2011).
In all, about 320,000 compounds went through this assay and about 22,000 (6.9%) were called active. The inconclusive results got no clear call from the source; some entries with a clear call stand among them for comparison. The call rests on the fitted dose curve; in most records, active means well fitted inhibition curve with a large enough effect; inconclusive means small, poorly fitted or top-dose-only effect, or another doubt; inactive means no such curve, though single readings can be large or run the other way. Where the call is inconclusive, the potency comes from a doubtful curve fit. Some structures have more than one record in an assay (separate samples or runs), and their calls can disagree. Where a SMILES comes first, the peptide text is derived from it. The star is where a group is joined. Cbz = O=C(OCc1ccccc1)*

Test: Primary qHTS for delayed death inhibitors of the malarial parasite plastid, 96 hour incubation
Conditions: P. falciparum luciferase reporter growth; series mostly up to 28.7 µM
Procedure, shortened: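 Plates of compound plus infected erythrocytes (2% hematocrit, 0.05% parasitemia final) incubate 96 hours, 37 C, 5% CO2. Detection reagent added; reduced luminescence from the parasites' luciferase reporter flags inhibition.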
Potency means the concentration at half of the fitted maximal effect.

Row | SMILES | Potency
1 | N#C/C(=C\c1cc(Cl)c(OCc2ccc(Cl)cc2)c(Cl)c1)C(N)=O | inactive
2 | O=C(Nc1cccc2ccccc12)c1ccc(Cn2cc(Cl)cn2)cc1 | active: 13.1 µM
3 | COc1ccc(CCNC(=O)Cc2cc(OCc3ccccc3)c(OC)cc2[N+](=O)[O-])cc1OC | inconclusive: 5.22 µM [inhibitor, partial curve, poor fit]
4 | CSc1nc(C)c(CCO)c(=O)[nH]1 | inactive
5 | CN1CCN(NC(=O)c2ccc(Br)c(S(=O)(=O)N3CCOCC3)c2)CC1 | inconclusive: 9.28 µM [inhibitor, single point]
6 | C=C[C@@H](C)N(Cc1ccc(OC)cc1)S(=O)(=O)N(Cc1ccccc1)[C@H](C=C)C(C)C | inconclusive: 5.22 µM [inhibitor, partial curve, poor fit]
7 | O=C(NCCCN1CCCC1=O)c1ccc2c(c1)NC(=O)c1ccccc1S2 | inactive
8 | O=[N+]([O-])c1ccc2oc(-c3cccc(O)c3)nc2c1 | inactive
9 | Cc1noc(C)c1S(=O)(=O)Nc1ccc(C(=O)N2CCc3ccccc3C2)cc1 | inconclusive: 11.7 µM [inhibitor, single point]
10 | CNC(=O)CSc1nnc(-c2cccnc2)n1-c1ccc(C)cc1 | inactive
11 | COc1ccc(OC)c(CN2CCC(C(=O)N3CCN(c4ccccc4F)CC3)CC2)c1 | inconclusive: 16.5 µM [inhibitor, single point]
12 | CCN(CC)CCn1c(=N)n(CC(O)COc2ccccc2)c2ccccc21 (stereo not drawn) | active: 2.33 µM
13 | CCCC[C@@H]1CNC(=S)N1CCC12CC3CC(CC(C3)C1)C2 | inconclusive: 3.29 µM [inhibitor, partial curve, poor fit]
14 | CCN(CC)C(=O)CCCC(=O)N(CC)CC | inactive
15 | Cc1ccccc1NC(=O)CSc1nc2c(c(-c3ccco3)c1C#N)CCCC2 | inconclusive: 3.7 µM [inhibitor, full curve]
16 | CCO[C@H]1OC(C(=O)N2CCN(Cc3ccc4c(c3)OCO4)CC2)=C[C@@H](C)[C@@H]1CCCO | inactive
17 | COc1ccc(-n2nc(C(=O)NCC(=O)N3CCC4(CC3)OCCO4)c3ccccc3c2=O)cc1Cl | inactive
18 | CSc1ccc(C(=O)C2CCCN(CCCn3cccn3)C2)cc1 (stereo not drawn) | inconclusive: 11.7 µM [inhibitor, single point]
19 | COCCCNCC(=O)Nc1ccc(OC(F)(F)F)cc1 | inconclusive: 11.7 µM [inhibitor, single point]
20 | COc1ccc(CN(CCCN2CCOCC2)C(=O)Nc2cccc(Cl)c2)cc1OC | active: 11.7 µM
21 | O=C(NCc1cccs1)C1CCN(S(=O)(=O)c2cccc3cccnc23)CC1 | inconclusive: 8.28 µM [inhibitor, partial curve]
22 | COc1ccc(CCNC(=O)c2cc(-c3cc(C)ccc3O)n[nH]2)cc1OC | inconclusive: 4.65 µM [inhibitor, partial curve, poor fit]
23 | CN1N=C(C(C)(C)C)CSC1=Nc1ccc(F)cc1 | inactive

Row | SMILES | Potency
24 | COc1cc2nc(COc3ccc(C#N)cc3)n(CC#N)c(=O)c2cc1OC | inconclusive: 14.7 µM [inhibitor, single point]
25 | CCOc1ccc(Oc2c(/C=N/NC(=O)COc3ccccc3OC)c(C)nn2-c2ccccc2)cc1 | active: 5.22 µM
26 | Cc1cc(/C=N/n2cnnc2)c(O)c([N+](=O)[O-])c1 | inactive
27 | Cc1cccc(N2CCN(S(=O)(=O)c3c(C)noc3/C=C/N(C)C)CC2)c1C | inconclusive: 11.7 µM [inhibitor, partial curve, poor fit]
28 | CC(C)c1nc(N2CCN(C(=O)c3ccco3)CC2)c(C#N)c2c1COC(C)(C)C2 | inconclusive: 11.7 µM [inhibitor, single point]
29 | COc1cccc(C(=O)OCn2nnc3ccccc3c2=O)c1 | inconclusive: 0.657 µM [inhibitor, full curve, poor fit]
30 | O=C(Nc1ccncc1)Nc1cccc(F)c1 | inactive
31 | CCCCNC(=O)C(C#N)c1nc2ccccc2nc1N1CCCC1 (stereo not drawn) | inconclusive: 11.7 µM [inhibitor, partial curve, poor fit]
32 | CS(=O)(=O)c1ccc2nc(NC(=O)CCC(=O)c3cccs3)sc2c1 | active: 11.7 µM
33 | O=C(Nc1cccc(NC(=O)c2cccs2)c1)c1ccc2c(c1)OCO2 | inactive
34 | Cc1ccc(S(=O)(=O)N2CCCCC2)cc1NC(=O)CNC(C)c1ccc(Cl)c(Cl)c1 (stereo not drawn) | inconclusive: 14.7 µM [inhibitor, partial curve, poor fit]
35 | CC(=O)c1cccc(NC(=O)CNC(=O)Cc2ccccc2)c1 | inactive
36 | COc1ccc(NC(=S)NCCc2c[nH]c3ccccc23)c(OC)c1 | inconclusive: 5.22 µM [inhibitor, partial curve]
37 | CCN(CC)C(=O)CSc1nnc(-c2ccc(O)cc2)n1CC1CCCO1 (stereo not drawn) | inconclusive: 11.7 µM [inhibitor, partial curve, poor fit]
38 | CC(=O)Cc1cc(=O)c2c(C)cc(O)c(C3OC(CO)C(O)C(O)C3O)c2o1 (stereo not drawn) | inconclusive: 18.5 µM [inhibitor, single point]
39 | COC(=O)c1ccc(NC(=O)c2cccc(C)c2)cc1 | inconclusive: 18.5 µM [inhibitor, partial curve, poor fit]
40 | CN(c1ccc(C(=O)N2CCN(Cc3ccc4c(c3)OCO4)CC2)cc1)S(=O)(=O)c1ccccc1 | inconclusive: 6.57 µM [inhibitor, partial curve, poor fit]
41 | CCC(C)C(NC(=O)OCc1ccccc1)C(=O)NC(Cc1ccc(O)cc1)C(=O)OC (stereo not drawn) (Cbz-Ile-Tyr-OMe; configuration not given here) | inconclusive: 2.94 µM [inhibitor, full curve, poor fit]
42 | C=CCn1c(SCC(=O)Nc2ccc(NC(=O)c3ccco3)c(OC)c2)nnc1-c1ccncc1 | inconclusive: 18.5 µM [inhibitor, single point]
43 | CCC(CO)Nc1nc2ccc(Cl)cc2c2ccccc12 (stereo not drawn) | inconclusive: 9.28 µM [inhibitor, partial curve, poor fit]
44 | COc1cccc(OCc2cc(C(=O)N3C[C@H]4C[C@@H](C3)c3cccc(=O)n3C4)no2)c1 | inconclusive: 16.5 µM [inhibitor, single point]
45 | CC(C)n1cc(C(=O)N2CCCC(N3CCN(c4cccc(Cl)c4)CC3)C2)cn1 (stereo not drawn) | inconclusive: 0.0294 µM [inhibitor, full curve, poor fit]
46 | CCn1nc(NS(=O)(=O)c2ccccc2[N+](=O)[O-])c2cc3cccc(C)c3nc21 | inconclusive: 18.5 µM [inhibitor, single point]

Row | SMILES | Potency
47 | C/C(=C\c1ccccc1)CN1CCN(Cc2ccc(C)o2)C(CCO)C1 (stereo not drawn) | active: 2.08 µM
48 | CC(Oc1ccccc1)C(=O)Nc1ccc(C(N)=O)cc1 (stereo not drawn) | inactive
49 | COc1ccc(NC(=O)c2ccc(Cl)nc2)cc1S(=O)(=O)N1CCCCC1 | inconclusive: 14.7 µM [inhibitor, partial curve, poor fit]
50 | COc1ccc(C2CC(=O)C(C=NCC(C)C)=C(O)C2)cc1 (stereo not drawn) | inactive
51 | OCCN1CCN(CC/C=C2/c3ccccc3Sc3ccc(C(F)(F)F)cc32)CC1 | active: 8.28 µM
52 | COc1cccc(CNS(=O)(=O)c2ccc(S(=O)(=O)N3CCCC3)cc2)c1 | inconclusive: 1.65 µM [inhibitor, full curve]
53 | COc1ccc([C@]23Cc4ccccc4C(O2)c2c(cc(C)n(Cc4ccccc4)c2=O)O3)cc1 | inconclusive: 4.26 µM [inhibitor, single point]
54 | C#CCNC(=O)C1=C[C@H](C(C)(C)C)C[C@H](OCc2ccc(CO)cc2)O1 | inconclusive: 7.38 µM [inhibitor, partial curve, poor fit]
55 | O=[N+]([O-])c1ccc(CSC2=NCCN2)cc1 | inactive
56 | COc1ccc(N(C)C(=O)c2sc(Cl)nc2C)cc1 | inconclusive: 18.5 µM [inhibitor, single point]
57 | O=C(c1ccc(Cl)nc1)N1CCN(S(=O)(=O)c2ccc3c(c2)OCCO3)CC1 | inconclusive: 9.28 µM [inhibitor, partial curve, poor fit]
58 | Brc1ccc(-n2c(SCc3nc4ccccc4[nH]3)nnc2-c2ccncc2)cc1 | inconclusive: 18.5 µM [inhibitor, single point]
59 | CCOC(=O)C1(CCOc2ccccc2)CCN(CC(O)CO)CC1 (stereo not drawn) | inconclusive: 18.5 µM [inhibitor, single point]
60 | COc1ccc(F)cc1C(=O)C1CCCN(Cc2cn(C)c3ccccc23)C1 (stereo not drawn) | inactive
61 | COc1cccc(N2CCN(CC(=O)NC(=O)NC3CCCCC3)CC2)c1 | inactive
62 | O=C(NCCN1CCOCC1)c1cc(-c2cccc(Cl)c2)on1 | inconclusive: 16.5 µM [inhibitor, single point]
63 | CC(C)[C@H](CO)Nc1nc(Nc2ccc(Cl)c(C(=O)O)c2)c2ncn(C(C)C)c2n1 | inconclusive: 18.5 µM [inhibitor, single point]
64 | CC(=O)C1=C(O)C(=O)N(c2nccs2)C1c1ccccc1F (stereo not drawn) | inactive
65 | COc1ccc(CCNc2nc(-c3ccc(F)cc3)c(CC(=O)O)s2)cc1OC | inconclusive: 13.1 µM [inhibitor, partial curve]
66 | CCOc1ccc(-n2c(C)nc3cc(C(=O)NCC4CCCO4)ccc32)cc1 (stereo not drawn) | inconclusive: 0.828 µM [inhibitor, full curve, poor fit]
67 | Cc1ccc(C(C(=O)NC2CCCC2)N2CCCCC2)cc1 (stereo not drawn) | active: 1.85 µM
68 | O=C(O)c1ccc(Sc2ccccn2)c([N+](=O)[O-])c1 | inconclusive: 18.5 µM [inhibitor, partial curve, poor fit]

Another view of some results above.
Row,SMILES,Potency
58,Brc1ccc(-n2c(SCc3nc4ccccc4[nH]3)nnc2-c2ccncc2)cc1,"inconclusive: 18.5 µM [inhibitor, single point]"
59,CCOC(=O)C1(CCOc2ccccc2)CCN(CC(O)CO)CC1 (stereo not drawn),"inconclusive: 18.5 µM [inhibitor, single point]"
60,COc1ccc(F)cc1C(=O)C1CCCN(Cc2cn(C)c3ccccc23)C1 (stereo not drawn),inactive
